Source: PubChem BioAssay AID540256 (National Center for Advancing Translational Sciences (NCATS), 2011)
Out of some 300,000 compounds screened, about 3,700 (1.2%) were called active. The shares of active, inactive and inconclusive entries below differ from those in the screen. The call rests on the fitted dose curve; tested in HEK293 cells. Where the call is inconclusive, the potency comes from a doubtful curve fit.

Experiment: qHTS for Inhibitors of binding or entry into cells for Lassa Virus; further: nearly all actives have a fitted effect of over 50% in size
Conditions: Lassa virus pseudotype entry inhibition, cell reporter; activity change, negative = inhibition: at 37.9 µM (top of the series) unless noted
On the % scale 0 is the no-effect control and ±100 the full control effect; potency means the concentration at half of the fitted maximal effect.

| SMILES | Potency | activity change, negative = inhibition |
| --- | --- | --- |
| COc1ccc(N(C)S(=O)(=O)c2cccc(C(=O)OCC(=O)N(C)c3ccccc3)c2)cc1 | inconclusive: 15.8 µM [inhibitor, single point] | – |
| CCc1cccc(C)c1NC(=S)N(CCN(C)C)C(C)c1cccnc1 (stereo not drawn) | inconclusive: 0.891 µM [inhibitor, full curve, poor fit] | – |
| COc1ccc(/C=N/NC(=O)c2ccccc2Cl)cc1CSc1nc2ccccc2s1 | active: 13 µM | – |
| COc1cccc(CNS(=O)(=O)c2ccc3c(c2)CC(C)N3C(=O)C2CCC2)c1 (stereo not drawn) | inconclusive: 35.5 µM [inhibitor, single point] | – |
| O=C(c1cc2nc(-c3cccs3)cc(C(F)(F)F)n2n1)N1CCCc2ccccc21 | inconclusive: 20 µM [inhibitor, single point] | – |
| C/C=C/c1ccccc1OCc1ccc(C(=O)O)o1 | inconclusive: 18.3 µM [inhibitor, single point] | – |
| Cn1c(-c2cc(Cl)ccc2O)nc2c1c(=O)[nH]c(=O)n2Cc1ccccc1 | inconclusive: 1 µM [inhibitor, partial curve, poor fit] | – |
| Cc1cc(NC(=O)NC(=O)c2ccccc2NC(=O)C(C)N)ccc1Oc1ncc(Br)cn1 (stereo not drawn) | inconclusive: 1.12 µM [inhibitor, partial curve, poor fit] | – |
| Cc1ccc(S(=O)(=O)c2cn(CC(=O)Nc3ccc(F)cc3)c3cc4c(cc3c2=O)OCO4)cc1 | – | inactive: 5.84% [at 46.1 µM] |
| COc1cc(SC)ccc1C(=O)OCC(=O)NCCNC(=O)COC(=O)c1ccc(SC)cc1OC | inconclusive: 11.2 µM [activator, partial curve, poor fit] | – |
| NC(=O)COc1ccccc1C(=O)NC12CC3CC(CC(C3)C1)C2 | inconclusive: 14.1 µM [activator, partial curve, poor fit] | – |
| CC1=NN(c2ccccc2)C(=O)/C1=C/c1c(O)n(-c2ccc(F)c(Cl)c2)[nH]c1=O | – | inactive: 20.3% |
| Cc1ccc(NC(=O)Cn2c(=O)n(CC(=O)NCCc3ccccc3)c(=O)c3ccccc32)cc1C | – | inactive: -2.23% [at 46.1 µM] |
| CN(C)S(=O)(=O)c1ccc(NC(=O)N2CCN(c3cccc(C(F)(F)F)c3)CC2)cc1 | inconclusive: 23.1 µM [inhibitor, single point] | – |
| Cc1ccccc1NC(=O)Cn1c(=O)sc2ccccc21 | inconclusive: 7.94 µM [inhibitor, partial curve, poor fit] | – |
| CC1CN(S(=O)(=O)c2ccc(NC(=O)c3ccco3)cc2)CC(C)O1 (stereo not drawn) | inconclusive: 10.3 µM [inhibitor, partial curve, poor fit] | – |
| COCCCn1[nH]c2c3c(ccc2c1=O)C(=O)c1ccccc1C3=O | inconclusive: 20 µM [inhibitor, single point] | – |
| CCOC(=O)c1sc(N(Cc2ccccc2)C(=O)CN2C(=O)CN(C)C2=O)nc1C | inconclusive: 35.5 µM [inhibitor, single point] | – |
| CC(C)C(=O)NC(=S)Nc1ccccc1N1CCN(C(=O)c2ccc(Cl)cc2)CC1 | inconclusive: 11.2 µM [inhibitor, partial curve, poor fit] | – |

| SMILES | Potency | activity change, negative = inhibition |
| --- | --- | --- |
| CC(C)=CC1C(C(=O)Nc2ccc(S(=O)(=O)N3CCOCC3)cc2)C1(C)C (stereo not drawn) | inconclusive: 28.2 µM [inhibitor, single point] | – |
| COc1cnc(-c2ccccn2)nc1Sc1ccccc1Cl | inconclusive: 14.6 µM [inhibitor, partial curve, poor fit] | – |
| Cn1c(=O)c2c(nc(CN3CCN(C(=O)c4ccco4)CC3)n2Cc2ccc(Cl)cc2)n(C)c1=O | – | inactive: -0.514% |
| Cc1cc(C)n(-c2nc3c(c(=O)[nH]c(=O)n3C)n2CC(O)COc2ccc(Cl)cc2Cl)n1 (stereo not drawn) | inconclusive: 7.3 µM [inhibitor, partial curve, poor fit] | – |
| Cc1ccc(CNC(=O)C(C)n2nc(C)c3sc4ccccc4c3c2=O)cc1 (stereo not drawn) | inconclusive: 14.1 µM [activator, single point] | – |
| Cc1cc(C)c(NC(=O)Cn2c(=O)n(Cc3ccc(C(=O)NCc4ccc5c(c4)OCO5)cc3)c(=O)c3ccccc32)c(C)c1 | inconclusive: 4.47 µM [inhibitor, single point] | – |
| CC(=O)c1c(C)oc2c1cc(NS(=O)(=O)c1ccc(C(C)(C)C)cc1)c1ccccc12 | – | inactive: -26.5% [at 46.1 µM] |
| CN(C(=O)c1ccc(Cl)nc1)C1(c2ccccc2Cl)CCCCC1=O (stereo not drawn) | inconclusive: 2.82 µM [inhibitor, partial curve, poor fit] | – |
| CCc1ccc2c(CN3CCc4cc(OC)c(OC)cc4C3)cc(=O)oc2c1 | – | inactive: -0.181% |
| Cc1cccc(NC(=O)CN2C(=O)C(c3ccc(F)cc3)=NC23CCCCCC3)c1 | inconclusive: 35.5 µM [inhibitor, single point] | – |
| CCn1c(=O)cc(OCC(=O)N2CCN(c3cccc(C)c3C)CC2)c2ccccc21 | inconclusive: 3.98 µM [inhibitor, partial curve, poor fit] | – |
| Cc1ccnc(NC(=O)c2cc3cc(F)ccc3s2)c1 | inconclusive: 7.08 µM [inhibitor, partial curve] | – |
| Cc1c(F)cccc1NS(=O)(=O)c1ccc(OCCNS(C)(=O)=O)cc1 | inconclusive: 11.2 µM [inhibitor, single point] | – |
| Cc1ccc(CNC(=O)c2ccc(N3CCCC3)c(NC(=O)Nc3ccc(F)c(Cl)c3)c2)cc1 | – | inactive: 1.7% [at 46.1 µM] |
| CCN1CCN(Cc2ccccc2NC(=O)Nc2ccc(C)cc2)CC1 | inconclusive: 14.1 µM [activator, partial curve, poor fit] | – |
| CCN(CCCNC(=O)c1nn(-c2ccc(C)cc2)c(=O)c2c1c1ccccc1n2C)c1cccc(C)c1 | inconclusive: 2.82 µM [inhibitor, single point] | – |
| COc1cc(/C=C/C(=O)OCC(=O)NCc2ccco2)ccc1OC(F)F | inconclusive: 1.26 µM [activator, partial curve] | – |
| CCCN(CCC)CC(O)CN(c1ccccc1)S(=O)(=O)c1ccc(C)cc1 (stereo not drawn) | inconclusive: 25.9 µM [inhibitor, single point] | – |
| Nc1nnc(-c2ccc([N+](=O)[O-])o2)s1 | inconclusive: 14.1 µM [inhibitor, single point] | – |

Some of the entries above, reformatted.
SMILES	Potency	activity change, negative = inhibition
Cn1c(=O)c2c(nc(CN3CCN(C(=O)c4ccco4)CC3)n2Cc2ccc(Cl)cc2)n(C)c1=O	–	inactive: -0.514%
Cc1cc(C)n(-c2nc3c(c(=O)[nH]c(=O)n3C)n2CC(O)COc2ccc(Cl)cc2Cl)n1 (stereo not drawn)	inconclusive: 7.3 µM [inhibitor, partial curve, poor fit]	–
